Assay results taken from the supplement of paper PMC6078165.

Tested on: MDAMB468
Experiment: relative JC-1 red fluorescence (viability) vs pre-drug, coculture with fibroblast (fraction); higher = more viable cancer cells
Experimental: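 JC-1 labelled TNBC cells cocultured 1:1 (1,500 cells each) with CellTrace Violet stained primary or stromal fibroblasts in 384-well plates in FluoroBrite medium, treated with one of 42 anticancer drugs at 0.1, 1, 10 or 100 uM. JC-1 red fluorescence (mitochondrial integrity in cancer cells only) was read by plate reader every 8 h for 72 h. Values are normalised to each well's pre-drug value. The stock of one drug was tenfold lower, so its dose labels may be too high.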

CCC1=C[C@@H]2CN(C1)Cc1c([nH]c3ccccc13)[C@@](C(=O)OC)(c1cc3c(cc1OC)N(C)[C@H]1[C@@](O)(C(=O)OC)[C@H](OC(C)=O)[C@]4(CC)C=CCN5CC[C@]31[C@@H]54)C2 [Vinorelbine]
relative JC-1 red fluorescence
Conditions | 8 h | 16 h | 24 h | 32 h | 40 h | 48 h | 56 h | 64 h | 72 h
0.1 µM, coculture fibroblast: C12385 | 0.8885 ± 0.0032 | 0.7975 ± 0.0013 | 0.804 ± 0.0048 | 0.77 ± 0.0051 | 0.7427 ± 0.0022 | 0.7421 ± 0.0049 | 0.7162 ± 0.0066 | 0.702 ± 0.018 | 0.715 ± 0.035
0.1 µM, coculture fibroblast: H6013 | 0.902 ± 0.029 | 0.8674 ± 0.0074 | 0.851 ± 0.011 | 0.8566 ± 0.0037 | 0.844 ± 0.0031 | 0.8726 ± 0.0068 | 0.8537 ± 0.0069 | 0.858 ± 0.01 | 0.814 ± 0.019
0.1 µM, coculture fibroblast: H6019 | 0.859 ± 0.033 | 0.846 ± 0.026 | 0.844 ± 0.042 | 0.839 ± 0.041 | 0.826 ± 0.06 | 0.837 ± 0.067 | 0.813 ± 0.059 | 0.814 ± 0.057 | 0.812 ± 0.049
0.1 µM, coculture fibroblast: H6076 | 0.975 ± 0.016 | 0.954 ± 0.06 | 0.942 ± 0.062 | 0.944 ± 0.051 | 0.866 ± 0.048 | 0.856 ± 0.017 | 0.8171 ± 0.0012 | 0.8015 ± 0.0065 | 0.858 ± 0.022
0.1 µM, coculture fibroblast: H6231 | 0.85 ± 0.027 | 0.9756 ± 0.0097 | 0.918 ± 0.031 | 0.848 ± 0.047 | 0.779 ± 0.058 | 0.757 ± 0.063 | 0.712 ± 0.072 | 0.692 ± 0.085 | 0.681 ± 0.084
0.1 µM, coculture fibroblast: HADF | 0.9271 ± 0.0079 | 0.859 ± 0.031 | 0.823 ± 0.014 | 0.812 ± 0.038 | 0.757 ± 0.055 | 0.743 ± 0.066 | 0.709 ± 0.069 | 0.696 ± 0.063 | 0.647 ± 0.06
0.1 µM, coculture fibroblast: HCFa | 0.893 ± 0.019 | 0.865 ± 0.013 | 0.829 ± 0.024 | 0.812 ± 0.036 | 0.77 ± 0.043 | 0.764 ± 0.052 | 0.72 ± 0.049 | 0.685 ± 0.045 | 0.628 ± 0.032
0.1 µM, coculture fibroblast: HCPF | 0.916 ± 0.012 | 0.871 ± 0.18 | 0.9172 ± 0.0022 | 0.912 ± 0.027 | 0.823 ± 0.036 | 0.784 ± 0.05 | 0.728 ± 0.061 | 0.706 ± 0.063 | 0.679 ± 0.066
0.1 µM, coculture fibroblast: HHSteC | 0.941 ± 0.015 | 0.901 ± 0.011 | 0.872 ± 0.011 | 0.862 ± 0.017 | 0.823 ± 0.0086 | 0.83 ± 0.0092 | 0.7484 ± 0.0071 | 0.7312 ± 0.0064 | 0.672 ± 0.0073
0.1 µM, coculture fibroblast: HMF | 0.878 ± 0.016 | 0.963 ± 0.043 | 0.93 ± 0.037 | 0.914 ± 0.028 | 0.842 ± 0.037 | 0.815 ± 0.034 | 0.756 ± 0.017 | 0.7301 ± 0.0054 | 0.707 ± 0.023
0.1 µM, coculture fibroblast: HPFa | 0.9231 ± 0.0022 | 0.899 ± 0.016 | 0.8445 ± 0.0011 | 0.7931 ± 0.0033 | 0.7444 ± 0.0048 | 0.7284 ± 0.0039 | 0.6702 ± 0.0047 | 0.649 ± 0.0077 | 0.587 ± 0.0064
0.1 µM, coculture fibroblast: HUF | 0.934 ± 0.034 | 0.842 ± 0.055 | 0.789 ± 0.039 | 0.735 ± 0.024 | 0.694 ± 0.0097 | 0.673 ± 0.0069 | 0.63909 ± 0.0006 | 0.6241 ± 0.0019 | 0.604 ± 0.011
0.1 µM, coculture fibroblast: Hs5 | 0.809 ± 0.075 | 0.975 ± 0.028 | 0.958 ± 0.04 | 0.948 ± 0.044 | 0.874 ± 0.046 | 0.85 ± 0.043 | 0.813 ± 0.044 | 0.78 ± 0.031 | 0.811 ± 0.033
0.1 µM, coculture fibroblast: Hs27A | 0.919 ± 0.004 | 0.873 ± 0.016 | 0.858 ± 0.018 | 0.856 ± 0.026 | 0.804 ± 0.019 | 0.788 ± 0.018 | 0.763 ± 0.033 | 0.752 ± 0.031 | 0.707 ± 0.028
0.1 µM, coculture fibroblast: Hs343T | 0.913 ± 0.02 | 0.9197 ± 0.0044 | 0.93 ± 0.062 | 0.894 ± 0.068 | 0.814 ± 0.053 | 0.796 ± 0.06 | 0.747 ± 0.053 | 0.728 ± 0.034 | 0.712 ± 0.029
0.1 µM, coculture fibroblast: WS1 | 0.876 ± 0.025 | 0.7788 ± 0.0041 | 0.755 ± 0.0011 | 0.7071 ± 0.00077 | 0.6707 ± 0.0044 | 0.638 ± 0.0066 | 0.6166 ± 0.0044 | 0.5912 ± 0.0029 | 0.586 ± 0.0013
1 µM, coculture fibroblast: C12385 | 0.902 ± 0.0068 | 0.8723 ± 0.0017 | 0.831 ± 0.02 | 0.788 ± 0.025 | 0.748 ± 0.024 | 0.736 ± 0.023 | 0.693 ± 0.019 | 0.669 ± 0.023 | 0.661 ± 0.028
1 µM, coculture fibroblast: H6013 | 0.899 ± 0.014 | 0.916 ± 0.013 | 0.8886 ± 0.0073 | 0.8821 ± 0.0034 | 0.8643 ± 0.0019 | 0.8686 ± 0.0045 | 0.837 ± 0.013 | 0.8313 ± 0.0073 | 0.782 ± 0.0085
1 µM, coculture fibroblast: H6019 | 0.851 ± 0.017 | 0.849 ± 0.018 | 0.848 ± 0.016 | 0.816 ± 0.023 | 0.808 ± 0.034 | 0.804 ± 0.039 | 0.771 ± 0.047 | 0.753 ± 0.07 | 0.744 ± 0.073
1 µM, coculture fibroblast: H6076 | 0.919 ± 0.015 | 0.9687 ± 0.0039 | 0.93 ± 0.0092 | 0.9467 ± 0.0011 | 0.8667 ± 0.0048 | 0.8503 ± 0.003 | 0.8074 ± 0.0072 | 0.7792 ± 0.0034 | 0.818 ± 0.021
1 µM, coculture fibroblast: H6231 | 0.85001 ± 1.9e-05 | 0.964 ± 0.024 | 0.866 ± 0.037 | 0.845 ± 0.018 | 0.79 ± 0.032 | 0.77 ± 0.044 | 0.724 ± 0.043 | 0.695 ± 0.033 | 0.678 ± 0.021
1 µM, coculture fibroblast: HADF | 0.951 ± 0.058 | 0.948 ± 0.034 | 0.922 ± 0.05 | 0.925 ± 0.072 | 0.891 ± 0.075 | 0.893 ± 0.098 | 0.854 ± 0.1 | 0.842 ± 0.1 | 0.795 ± 0.1
1 µM, coculture fibroblast: HCFa | 0.8831 ± 0.0026 | 0.911 ± 0.038 | 0.869 ± 0.037 | 0.852 ± 0.037 | 0.812 ± 0.064 | 0.808 ± 0.073 | 0.758 ± 0.076 | 0.726 ± 0.084 | 0.668 ± 0.073
1 µM, coculture fibroblast: HCPF | 0.886 ± 0.016 | 0.9188 ± 0.0021 | 0.874 ± 0.018 | 0.89 ± 0.029 | 0.814 ± 0.036 | 0.789 ± 0.043 | 0.733 ± 0.056 | 0.711 ± 0.062 | 0.701 ± 0.074
1 µM, coculture fibroblast: HHSteC | 0.9441 ± 0.0075 | 0.924 ± 0.0093 | 0.906 ± 0.017 | 0.88 ± 0.026 | 0.844 ± 0.024 | 0.839 ± 0.036 | 0.766 ± 0.034 | 0.736 ± 0.038 | 0.682 ± 0.045
1 µM, coculture fibroblast: HMF | 0.854 ± 0.013 | 0.846 ± 0.19 | 0.9435 ± 0.0048 | 0.9244 ± 0.0044 | 0.866 ± 0.021 | 0.857 ± 0.011 | 0.796 ± 0.012 | 0.771 ± 0.0024 | 0.75 ± 0.0086
1 µM, coculture fibroblast: HPFa | 0.9575 ± 0.0029 | 0.949 ± 0.0017 | 0.909 ± 0.022 | 0.864 ± 0.014 | 0.8525 ± 0.0017 | 0.8444 ± 0.00091 | 0.7969 ± 0.0063 | 0.779 ± 0.017 | 0.696 ± 0.014
1 µM, coculture fibroblast: HUF | 0.947 ± 0.016 | 0.877 ± 0.026 | 0.838 ± 0.044 | 0.764 ± 0.046 | 0.725 ± 0.059 | 0.697 ± 0.068 | 0.655 ± 0.067 | 0.626 ± 0.08 | 0.604 ± 0.086
1 µM, coculture fibroblast: Hs5 | 0.734 ± 0.014 | 0.931 ± 0.074 | 0.948 ± 0.037 | 0.967 ± 0.03 | 0.896 ± 0.027 | 0.863 ± 0.026 | 0.823 ± 0.028 | 0.783 ± 0.027 | 0.795 ± 0.0095
1 µM, coculture fibroblast: Hs27A | 0.9382 ± 0.0033 | 0.922 ± 0.021 | 0.9036 ± 0.0077 | 0.9103 ± 0.0081 | 0.87377 ± 0.00034 | 0.8726 ± 0.0044 | 0.8401 ± 0.0036 | 0.8174 ± 0.0053 | 0.7716 ± 0.0013
1 µM, coculture fibroblast: Hs343T | 0.8886 ± 0.0032 | 0.9787 ± 0.0029 | 0.953 ± 0.017 | 0.949 ± 0.027 | 0.877 ± 0.022 | 0.861 ± 0.024 | 0.818 ± 0.021 | 0.798 ± 0.021 | 0.781 ± 0.02
1 µM, coculture fibroblast: WS1 | 0.8928 ± 0.008 | 0.8223 ± 0.0054 | 0.815 ± 0.0054 | 0.773 ± 0.011 | 0.735 ± 0.021 | 0.707 ± 0.021 | 0.69 ± 0.019 | 0.667 ± 0.02 | 0.65 ± 0.02

± gives the standard deviation of the averaged measurements. Values are relative to the signal before dosing, not to a vehicle control; the signal also falls without drug.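 Fibroblast labels denote human fibroblasts, mainly primary ones from uterus (C12385, HUF), lung (H6013), bone (Hs27A), adrenal (HADF) and skin (WS1), plus mammary HMF and breast cancer-associated Hs343T. Cancer cells are basal-like or mesenchymal-like triple-negative breast cancer lines. A hit is a response shift exceeding 3x replicate standard deviation. The tissue of the other fibroblasts is not given here.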
